Assay results: patent US12029738B2, “Antiproliferative compounds and methods of use thereof” (Celgene Corporation, priority 2017, dated 2024)
Some of these results come from one statement about several compounds together.

Target: dopamine D2 receptor (Homo sapiens, UniProt P14416)
Assay: Dopamine D2 receptor binding (D2S and D2L summarised)
Details: D2 receptor summary; for IC50: read-out: dopamine D2 receptor binding IC50 values

In the case of `N#Cc1ccc(N2CCN(Cc3ccc(COc4cccc5c4CN(C4CCC(=O)NC4=O)C5=O)cc3)CC2)c(F)c1` (racemic) [Compound 1, 4-(4-(4-(((2-(2,6-dioxopiperidin-3-yl)-1-oxoisoindolin-4-yl)oxy)methyl)benzyl)piperazin-1-yl)-3-fluorobenzonitrile], the “dopamine D2 receptor inhibition at 10 μM” value is reported as no more than 55% and the IC50 is reported as no less than 2000 nM.

In the case of `N#Cc1ccc(N2CCN(Cc3ccc(COc4cccc5c4CN([C@H]4CCC(=O)NC4=O)C5=O)cc3)CC2)c(F)c1` [Compound 2, (S)-4-(4-(4-(((2-(2,6-dioxopiperidin-3-yl)-1-oxoisoindolin-4-yl)oxy)methyl)benzyl)piperazin-1-yl)-3-fluorobenzonitrile], the “dopamine D2 receptor inhibition at 10 μM” value is reported as no more than 55% and the IC50 is reported as no less than 2000 nM.
